Reference: PubChem BioAssay AID624415 (National Center for Advancing Translational Sciences (NCATS), 2012)
The campaign covered roughly 390,000 compounds. About 60 (0.02%) were called active. This list was built around the results that the source calls inconclusive (neither active nor inactive); the mix of calls is not that of the screen. Rule as the data show it: active = activity change below about -50%; inconclusive = between about -30% and that limit; inactive = weaker than that.

By UniProt entry, the sequences of proteins in these tests, tags left out.
UniProt Q9GZU1, whole entry, looked up: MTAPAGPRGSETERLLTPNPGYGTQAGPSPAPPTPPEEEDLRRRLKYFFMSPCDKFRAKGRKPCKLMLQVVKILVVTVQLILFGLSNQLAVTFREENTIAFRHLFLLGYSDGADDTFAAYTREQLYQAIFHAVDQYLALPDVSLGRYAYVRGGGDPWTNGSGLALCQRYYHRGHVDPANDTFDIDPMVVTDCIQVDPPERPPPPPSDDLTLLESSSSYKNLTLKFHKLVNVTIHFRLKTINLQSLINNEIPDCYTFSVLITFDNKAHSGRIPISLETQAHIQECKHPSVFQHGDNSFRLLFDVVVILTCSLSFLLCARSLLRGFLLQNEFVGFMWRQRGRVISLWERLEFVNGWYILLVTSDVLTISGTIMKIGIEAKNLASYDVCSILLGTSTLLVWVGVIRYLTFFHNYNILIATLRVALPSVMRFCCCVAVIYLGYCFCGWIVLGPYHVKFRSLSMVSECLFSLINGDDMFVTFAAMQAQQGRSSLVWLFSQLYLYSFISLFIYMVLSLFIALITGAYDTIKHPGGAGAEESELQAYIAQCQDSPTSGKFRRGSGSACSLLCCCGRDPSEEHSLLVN

Each compound was assayed against Mucolipin-1 (Homo sapiens) (UniProt Q9GZU1) (assay: qHTS for Inhibitors of the Human Mucolipin Transient Receptor Potential 1 (TRPML1)). Settings: TRPML1-inducible cells, Ca2+ dye fluorescence, FDSS; stronger effect = lower value; inhibition of EC80 agonist-evoked calcium signal.
Procedure, shortened: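 Tet-induced TRPML1-DL cells loaded with Ca8 no-wash calcium dye were read kinetically on FDSS. Compound addition was followed by EC80 agonist 54-4 (4 uM final); inhibition was read over 110 s.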
% is scaled to controls: 0 for no effect and ±100 for the full control effect.
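Also: stimulus is agonist 54-4 at its EC80 concentration.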

Structure (SMILES) | activity change, negative = inhibition
COc1ccc2ccccc2c1/C=N/NC(=O)c1cc(C)[nH]n1 | inconclusive: -31.1%
CCc1cc2ccc(C)c(C)c2nc1SCC(=O)Nc1cc(C)on1 | inactive: 7.53%
Cc1ccc(S(=O)(=O)N2[C@@H](c3ccc(C(C)(C)C)cc3)C(C(=O)O)=CC[C@H]2c2ccc(C(C)C)cc2)cc1 | inactive: 5.41%
COc1ccc(C(C)NC(=O)c2ccc(Br)cc2)cc1OC (stereo not given) | inconclusive: -30%
Cc1cc(Cl)cc(C)c1OCCNCc1ccccc1 | inactive: -6.09%
COc1cccc(-n2nc(-c3ccnn3-c3ccc(F)cc3)c(=O)n(C)c2=O)c1 | inconclusive: -41.7%
COc1ccc(-n2ncc3c(N4CCN(c5cccc(C)c5)C(C)C4)ncnc32)cc1 (stereo not given) | inconclusive: -38.9%
CCOc1ccccc1-c1nc(C(N)=O)c2[nH]c(=O)n(-c3ccc(F)cc3)c2n1 | inactive: 4.67%
CCCCC1=CC2=C(c3ccco3)C(=O)C(C)(OC(=O)c3ccc(OC)cc3)C(=O)C2=CN1CC1CC1 (stereo not given) | inactive: 17.2%
CCC(C)(C)NC(=O)CN(Cc1cccs1)C(=O)CNS(=O)(=O)c1ccc(C)cc1 | inconclusive: -38.8%
CN(C)N1C(N)=C(C#N)C(c2ccc3c(c2)OCO3)C2=C1CCCC2=O (stereo not given) | inconclusive: -30.2%
Cn1cc(CCCC(=O)NCc2cccc(Br)c2)c2ccccc21 | inconclusive: -34.3%
CN=C(Nc1ccc(Br)cc1)SC1CC(=O)N(c2ccc(OC)cc2)C1=O (stereo not given) | inconclusive: -30.4%
N=C1C(c2ccccc2)=C(O)CN1c1cccc(S(=O)(=O)N2CCOCC2)c1 | inconclusive: -33.7%
COc1ccc(S(=O)(=O)N2CCc3cc4c(cc3C2C)OCCCO4)cc1 (stereo not given) | active: -50.8%
C=CCN(CC=C)C(=O)Nc1cc(OC)ccc1OC | inconclusive: -41.9%
O=C(c1ccc(Br)cc1)N1CCC2(CC1)NCCc1[nH]cnc12 | inactive: 22.6%
Nc1ccc2nc3n(c(=O)c2c1)CCC3 | inconclusive: -31%
Cc1ccc(OCC(=O)NNC(=O)CCc2ccccc2)cc1 | inconclusive: -32.8%
COc1ccccc1C1CC(c2ccc(NS(C)(=O)=O)cc2)=NN1C(=O)c1ccccc1 (stereo not given) | inactive: 0.0738%
Cc1ccc(NN2C(=O)C=C(c3ccccc3)C2=O)cc1 | inconclusive: -30.1%
Cc1occc1C(=O)N/N=C/c1c(O)ccc2ccccc12 | inconclusive: -31.9%

Structure (SMILES) | activity change, negative = inhibition
COc1ccc(C(=O)C2CCCN(Cc3c(F)ccc(F)c3F)C2)c(OC)c1 (stereo not given) | inactive: -5.07%
CCOC(=O)c1c(C)n(-c2ccc(C)cc2)c2ccc(OCC(O)CNCCCO)cc12 (stereo not given) | inconclusive: -30.5%
Cc1ccc2c(=O)cc(C(=O)Nc3c(C)cccc3C)oc2c1 | inactive: 1.49%
Cc1occc1C(=O)Nc1cc(S(=O)(=O)N2CCOCC2)ccc1OC(C)C | inconclusive: -33.6%
CCc1ccccc1NC(=O)C1COc2ccccc2O1 (stereo not given) | inconclusive: -31.9%
COc1ccc(CCNC(=O)c2cc(=O)c3cc(C)c(C)cc3o2)cc1OC | inconclusive: -32.6%
Cc1cc(C)c(S(=O)(=O)N2CCCOC2CNC(=O)C(=O)NCc2cccnc2)c(C)c1 (stereo not given) | inconclusive: -35.3%
COc1ccccc1C(=O)N(c1ccc(C)cc1)S(=O)(=O)c1ccc(Cl)cc1 | inconclusive: -35.6%
O=C(NC(=O)c1ccccc1Cl)C(=O)Nc1ccc(Cl)cc1 | inconclusive: -30.4%
O=C(NCc1cccc(F)c1)c1ccccc1NC(=O)c1nsc2ccccc12 | inconclusive: -37.9%
O=C(CCCOc1ccc(Cl)cc1Cl)NNC(=O)C1CCC1 | inconclusive: -31.8%
Cc1cc(C(=O)NNc2ccc(F)cc2)no1 | inactive: 59.6%
COc1ccc(CNC(=O)CNC(C)c2ccc(F)cc2)cc1 (stereo not given) | inconclusive: -38.9%
Cc1nn(C)cc1CN1CCCC(C(=O)c2ccc(-c3ccccc3)c(F)c2)C1 (stereo not given) | inconclusive: -35.6%
O[C@H]1CN(Cc2cccs2)[C@@H](c2ccccc2)C[C@@H]1n1cc(C2CC2)nn1 | inconclusive: -32.7%
CC[C@]12c3[nH]c4cc(-c5ccco5)ccc4c3CCN1C(=O)[C@@H](CC(=O)NCCc1ccccn1)C[C@@H]2C(=O)N1CCN(C(=O)C2CC2)CC1 | inconclusive: -36.6%
Cc1cc(-c2ccc(C)c(S(=O)(=O)NCCCN3CCCCCC3)c2)on1 | inconclusive: -33.5%
Cc1cc(NC(=O)c2ccc(-c3ccccc3F)o2)no1 | inactive: 4.76%
Cc1nn(-c2ccccc2)c(N)c1Sc1ccccc1[N+](=O)[O-] | inconclusive: -42.6%
COc1cc(NC(=O)CNC(=O)Cn2ccc3ccccc3c2=O)cc(OC)c1OC | inconclusive: -38.6%
O=C1N=C(N2CCCCC2)S/C1=C/C1=Cc2ccccc2OC1 | inconclusive: -40.2%
CNc1ccc2c3c(cccc13)C(=O)N(C)C2=O | inactive: -13.4%

Structure (SMILES) | activity change, negative = inhibition
Cc1ccc2c(c1)C(=O)C(=O)N2c1ccc(Cl)cc1 | inconclusive: -32%
COc1ccc(N2CCN(CC(=O)Nc3c(C)cc(C)cc3C)CC2)cc1 | inactive: -10.9%
O=C(NC(NC(=S)N1CCOCC1)C(Cl)(Cl)Cl)c1ccc(Cl)cc1 (stereo not given) | inconclusive: -38.6%
O=C(CSc1ccc2nnc(-c3ccncc3)n2n1)NCc1ccco1 | inconclusive: -43.5%
COc1ccccc1OCCNC(=O)CNC(=O)c1ccc(C(C)(C)C)cc1 | inconclusive: -45.5%
Cn1cccc1C(C(=O)NC1CCCCC1)N(C(=O)Cc1cccs1)C1CC1 (stereo not given) | inconclusive: -32.3%
Cc1onc(-c2ccccc2Cl)c1C(=O)NC(=S)NCC(=O)c1ccccc1 | inactive: 3.32%
CCC(C)n1c(SCc2ccc(F)cc2Cl)nc2ccsc2c1=O (stereo not given) | inconclusive: -39.4%
O=C(CN(Cc1ccccc1)C(=O)CNS(=O)(=O)c1ccc(Cl)cc1)NCC1CCCO1 (stereo not given) | inconclusive: -45.3%
C[C@@H]1CC[C@@]2(O[C@@H](CCO)C[C@H](O)[C@H]2O)O1 | inconclusive: -45.8%
COc1ccc(Cl)cc1NC(=S)NCCCN1CCCC1=O | inconclusive: -37.1%
COc1ccc(N2CCN(C(c3ccccc3OC)c3nnnn3C3CCCC3)CC2)cc1 (stereo not given) | inconclusive: -32.2%
CC1CCC2C(=O)N(c3cccc(C(=O)Nc4ccc(F)cc4)c3)C(=O)C2C1 (stereo not given) | inactive: -2.98%
O=C(CN1C(=O)NC(Cc2c[nH]c3ccccc23)C1=O)Nc1ccccc1Br (stereo not given) | inactive: -3.11%
COc1cc(C2C(C#N)=C(N)N(Nc3ccccc3)C3=C2C(=O)CC(C)(C)C3)ccc1OCc1cccc(F)c1 (stereo not given) | inactive: -15.6%
COc1cc(/C=C2\COC/C(=C\c3ccc(O)c(OC)c3)C2=O)ccc1O | inactive: -15.1%
C/C=C/c1ccc(OCCNCc2ccccc2)c(OC)c1 | inactive: 5.38%
Cc1cccc(C(=O)NCCNC(=O)c2cccc(C)c2)c1 | inactive: 56.5%
CC(=O)Nc1ccc(S(=O)(=O)Nc2cc(C)ccn2)cc1 | inconclusive: -31.2%
Fc1ccc(Nc2nc3nonc3nc2Nc2cccc(C(F)(F)F)c2)cc1 | inactive: -4.31%
O=C(/C=C/c1ccccc1)Nc1ccc(N2CCCCC2)cc1 | inactive: 1.23%
COc1ccc(/C=N/NC(=O)c2cccc(OC(F)(F)C(F)F)c2)c(OC)c1OC | inactive: -11.8%

Molecules from the list above that contain a furan ring, fused or not:
Structure (SMILES) | activity change, negative = inhibition
CCCCC1=CC2=C(c3ccco3)C(=O)C(C)(OC(=O)c3ccc(OC)cc3)C(=O)C2=CN1CC1CC1 (stereo not given) | inactive: 17.2%
Cc1occc1C(=O)N/N=C/c1c(O)ccc2ccccc12 | inconclusive: -31.9%
Cc1occc1C(=O)Nc1cc(S(=O)(=O)N2CCOCC2)ccc1OC(C)C | inconclusive: -33.6%
CC[C@]12c3[nH]c4cc(-c5ccco5)ccc4c3CCN1C(=O)[C@@H](CC(=O)NCCc1ccccn1)C[C@@H]2C(=O)N1CCN(C(=O)C2CC2)CC1 | inconclusive: -36.6%
Cc1cc(NC(=O)c2ccc(-c3ccccc3F)o2)no1 | inactive: 4.76%
O=C(CSc1ccc2nnc(-c3ccncc3)n2n1)NCc1ccco1 | inconclusive: -43.5%

(next part)

Structure (SMILES) | activity change, negative = inhibition
CCOC(=O)c1ccc(NC(=S)N(CCCN2CCCCC2)Cc2ccco2)cc1 | inactive: -4.77%
CCOC(=O)c1cc(-c2ccccc2)n(CC(=O)Nc2cc(Cl)c(OC)cc2OC)c1C | inconclusive: -36.8%
O=C(COc1ccc(Cl)cc1)N(Cc1ccco1)c1ccccn1 | inconclusive: -31.8%
Cc1c(Br)c([N+](=O)[O-])nn1CC(=O)N1CCc2ccccc2C1 | inconclusive: -40.5%
Cc1ccc(S(=O)(=O)NC(=O)C2(C)CCN2C(=O)C2(c3ccc(Cl)cc3)CCC2)cc1 (stereo not given) | inconclusive: -36.8%
CCCCc1nc2cc(Cl)ccc2o1 | inconclusive: -43%
COC(=O)[C@@H]1C[C@H]2CC[C@H](O)C[C@H]2N1Cc1ccc(C(C)(C)C)cc1 | inconclusive: -31.5%
O=C(NCCN1CCOCC1)c1cc(Sc2ccc(F)cc2F)nc2ccccc12 | inconclusive: -36.7%
O=C(O)C1C2C=CC3(CN(c4cccc(C(F)(F)F)c4)C(=O)C13)O2 (stereo not given) | inconclusive: -30.7%
Cc1ccc(N2CCN(S(=O)(=O)c3cc(C(=O)Nc4cc(Cl)cc(Cl)c4)ccc3F)CC2C)cc1 (stereo not given) | inconclusive: -31%
CNc1c2c(nn1C)CCCC2 | inconclusive: -44.2%
Cc1cccc(-c2nc3scc(CCNS(=O)(=O)c4ccc(Oc5ccccc5)cc4)n3n2)c1 | inconclusive: -39.6%
CN(CC(=O)Nc1cccc(F)c1)C(=O)c1ccncc1 | inconclusive: -30.8%
CCCS(=O)(=O)c1nc(S(=O)(=O)c2ccc(C)cc2)c(N2CCN(CCO)CC2)s1 | inactive: -0.974%
COc1cccc(CN2CCN(Cc3nc(-c4cccc(F)c4F)oc3C)CC2=O)c1 | inconclusive: -32.7%
COc1ccccc1CNS(=O)(=O)c1ccc2c(c1)NC(=O)CO2 | inconclusive: -36.1%
Cc1cc(C)c(S(=O)(=O)Nc2c(C)n(C)n(-c3ccccc3)c2=O)cc1[N+](=O)[O-] | inconclusive: -33.4%
CN(Cc1nc2ccccc2c(=O)[nH]1)c1ccccc1 | inconclusive: -30.6%
O=C(NCCCN1CCOCC1)c1ccc2c(=O)n(Cc3cccc(Br)c3)c(=S)[nH]c2c1 | inconclusive: -44.2%
